Results on one compound are retold here after the supplement of paper PMC12819154, “High-throughput peptide-centric local stability assay extends protein–ligand identification to membrane proteins, tissues and bacteria” (Nature Structural & Molecular Biology, 2025).

For the experiment, the target named is HSP90AA2P (UniProt Q14568). Nature of the experiment: log2 fold change of tryptic peptide abundance, ligand vs vehicle (limited proteolysis) (log2 ratio); higher = more trypsin-susceptible (destabilized). Particulars: peptide sequence: NLTNDWEDHLAVK; peptide start residue: 314; ligand concentration: 5 uM; sample: K562 cleared lysate.

The structures appear in SMILES notation. The list shows a part of the results. Most entries show no effect beyond the scatter of the controls.

On to `Cc1nc(Nc2ncc(C(=O)Nc3c(C)cccc3Cl)s2)cc(N2CCN(CCO)CC2)n1` [dasatinib], for which the log2 fold change was -0.383.
